Percent effect of library compounds

By UniProt entry, the sequences of proteins in these tests, tags left out.
UniProt P9WNZ1, whole entry: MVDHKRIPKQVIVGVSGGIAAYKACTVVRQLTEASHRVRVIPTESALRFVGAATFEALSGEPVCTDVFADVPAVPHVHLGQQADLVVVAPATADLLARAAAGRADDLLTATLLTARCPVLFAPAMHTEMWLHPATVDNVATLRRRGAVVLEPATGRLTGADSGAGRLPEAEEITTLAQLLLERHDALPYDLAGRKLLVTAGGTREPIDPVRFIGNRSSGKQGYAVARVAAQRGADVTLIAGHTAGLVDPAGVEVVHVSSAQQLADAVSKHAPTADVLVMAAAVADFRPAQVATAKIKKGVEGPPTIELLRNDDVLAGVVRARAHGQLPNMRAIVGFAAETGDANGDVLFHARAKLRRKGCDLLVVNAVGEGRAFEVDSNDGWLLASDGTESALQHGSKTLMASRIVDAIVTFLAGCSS
UniProt P9WFT3, whole entry: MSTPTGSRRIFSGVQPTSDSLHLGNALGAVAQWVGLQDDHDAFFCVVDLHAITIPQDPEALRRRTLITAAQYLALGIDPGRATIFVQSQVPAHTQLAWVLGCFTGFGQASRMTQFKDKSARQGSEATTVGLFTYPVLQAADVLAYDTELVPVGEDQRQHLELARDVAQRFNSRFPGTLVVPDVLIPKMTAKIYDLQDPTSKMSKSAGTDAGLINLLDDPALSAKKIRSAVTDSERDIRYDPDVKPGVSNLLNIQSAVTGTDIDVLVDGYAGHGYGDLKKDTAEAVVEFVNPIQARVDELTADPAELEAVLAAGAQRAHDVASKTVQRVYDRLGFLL

Data taken from ChEMBL document CHEMBL3988442, “University of Dundee, Small-Polar-MMV Screening Library” (2021).

CoaBC: 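Enzyme assay of CoaBC with a phosphate dye (Biomol Green) read at 650 nm. Target: Coenzyme A biosynthesis protein CoaBC, Mycobacterium tuberculosis (UniProt P9WNZ1). Concentration: 30 µM. Direction is inferred from only a few compounds that gave an IC50; most scored high, so higher reads as stronger inhibition. Most strong results did not repeat in a second test. Size under these conditions: about 67,000 compounds, about 40 of them at 50% or above in at least one test.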
MtTrpRS: 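Tryptophan-tRNA ligase, Mycobacterium tuberculosis (UniProt P9WFT3). Enzyme assay of tryptophanyl-tRNA synthetase; the read-out is not stated. Concentration: 10 µM. Direction is not recorded; retested compounds ran higher, which suggests that high means inhibition. Size under these conditions: about 65,000 compounds, about 64 of them at 50% or above in at least one test.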

Each number is a percent effect as filed. The record does not define 0% and 100%; most values in the screen are far below 50% and negative numbers occur (in some assays of this library far below -100). Compounds were drawn at random from those tested, without regard to their results.

With CN1CCC(N(C)c2ccccc2CNCc2ccco2)CC1 the screen gave CoaBC: 7.205%; MtTrpRS: 2.477%. With CN1CC2(CCN(C(=O)c3ccc4nccnc4c3)CC2)CC1=O the screen gave CoaBC: 5.913%; MtTrpRS: 8.003%. With COCCCNC(=O)c1cc(-c2ccc(OC)cc2)nn1C the screen gave CoaBC: -15.62%; MtTrpRS: -3.155%. For CCN(Cc1ccoc1)C(=O)c1cc(S(N)(=O)=O)c(C)o1 the result was CoaBC: -0.4073%; MtTrpRS: -1.09%. With O=C1CCC(C(=O)N2CCOC(Cc3ccccc3Cl)C2)=NN1 (stereo not drawn) the screen gave CoaBC: -1.463%; MtTrpRS: 2.207%. With CC(C)Oc1cccc(C(=O)C2CCCN(C(=O)c3ccoc3)C2)c1 (stereo not drawn) the screen gave CoaBC: 1.895%; MtTrpRS: -7.42%.

With Cc1ccc(N2CC[C@H]3OCC[C@@]3(C(=O)NC(C)C)C2)nn1 the screen gave CoaBC: -0.207%; MtTrpRS: 5.816%. COc1cc(C)nc(N2CCN(C(=O)CSC)CC2)n1 gave CoaBC: 2.046%; MtTrpRS: 2.912%. For CC(C)N(CC(=O)O)Cc1cccc(Br)c1 the result was CoaBC: 0.6329%; MtTrpRS: -2.103%. Cc1cncc(Oc2ccc(CO)cc2)n1 read CoaBC: 0%; MtTrpRS: -2.287%. Result for O=C(CN1C=Nc2ccccc2S1(=O)=O)NC1CCCCC1 was CoaBC: 2.554%; MtTrpRS: 0.1037%. With c1cnnc(N2CCCC(NCc3nnc(-c4ccco4)o3)C2)c1 (stereo not drawn) the screen gave CoaBC: 3.627%; MtTrpRS: -2.301%.

Result for Cc1ccc(-c2nnc(CN3CCn4c(nnc4C4CC4)C3)o2)cc1 was CoaBC: 3.133%; MtTrpRS: -0.05959%. For Cc1[nH]/c(=N\C(=O)c2csc(NCC(C)C)n2)sc1C the result was CoaBC: -1.316%; MtTrpRS: 0.4177%. Cc1noc(C)c1CC(=O)NCC(CC(C)C)N1CCOCC1 (stereo not drawn) gave CoaBC: -0.9926%; MtTrpRS: 2.094%. Cc1noc(CNC(=O)CN(C)c2nc3c(C)ccc(C)c3s2)n1 gave CoaBC: -1.459%; MtTrpRS: -0.4167%. COCCNC(=O)[C@H]1C[C@@H]2CCN(c3nncs3)C[C@H]2O1 read CoaBC: -3.52%; MtTrpRS: -1.501%. With CCc1ccc(CN2CCC3(CC2)C(=O)N(C)CCN3CC)cc1 the screen gave CoaBC: 6.361%; MtTrpRS: -4.123%.

COCCN1C[C@H]2CN(C(=O)c3ccno3)CCN2C1=O read CoaBC: 11.06%; MtTrpRS: -1.13%. For Cc1cc(N(C)Cc2ncc[nH]2)nc(-c2ccccc2)n1 the result was CoaBC: 0.6046%; MtTrpRS: -4.959%. For CCCc1nc(C(=O)N(C)Cc2cnn(-c3cccc(OC)c3)c2)cs1 the result was MtTrpRS: 1.754%. Result for CC(=O)N1CCCN(C(=O)c2ccc(Sc3ccccn3)cc2)CC1 was CoaBC: -6.132%; MtTrpRS: 2.925%. For COc1ccc(OCc2nc(C(=O)N3CC(O)C3)co2)cc1 the result was CoaBC: 1.066%; MtTrpRS: 2.709%. CCOCCN(C)C(c1cccnc1)c1ccc(F)cc1F (stereo not drawn) read CoaBC: 3.273%; MtTrpRS: -4.175%.

Result for Cc1cnc(CNC(=O)[C@@]23CCO[C@@H]2CCNC3)cn1 was CoaBC: 3.704%. With Cn1ccc(C(=O)N2CCC(Cc3ccc4ncccc4c3)CC2)n1 the screen gave CoaBC: -0.7264%; MtTrpRS: 5.94%. For Cc1ccc(CN2CCC3(CC(C(=O)NC4CCC4)=NO3)C2)o1 (stereo not drawn) the result was CoaBC: 4.202%; MtTrpRS: 4.882%. Cc1cc(C(=O)N2CC[C@@H]3CN(C)S(=O)(=O)[C@@H]3CC2)no1 read CoaBC: 0.3861%; MtTrpRS: -7.122%. For O=C(c1ccsc1)N1CCc2ncc(Cn3cncn3)n2CC1 the result was CoaBC: 5.25%; MtTrpRS: -3.44%. For Cc1cc(C)n(CC2CCN(CC(O)CN3CCOCC3)CC2)n1 (stereo not drawn) the result was CoaBC: 2.45%; MtTrpRS: 1.782%.

With CC(=O)N1CC[C@@H]2O[C@@H](COCc3csc(C)n3)CC[C@@H]21 the screen gave CoaBC: -4.569%; MtTrpRS: 2.058%. c1ccc(CN2CCOC3CNCC[C@H]32)cc1 (stereo partly drawn) read CoaBC: -12.92%; MtTrpRS: 11.21%. With OCc1n[nH]c(-c2ccc(F)cc2)n1 the screen gave CoaBC: 2.357%; MtTrpRS: 0.75%. With CO[C@H]1CN(Cc2nc3ccccc3n2C)CC[C@@]12CCCO2 the screen gave CoaBC: -4.545%; MtTrpRS: 1.042%. With O=C(c1ccncc1)N1CCN2C[C@H](Oc3cncnc3)C[C@H]2C1 the screen gave CoaBC: 1.613%; MtTrpRS: 0.4647%. With Cc1nn(CC(=O)N2CCC3(CN(C)C(=O)O3)C2)c(=O)c2ccccc12 (stereo not drawn) the screen gave CoaBC: -0.1215%; MtTrpRS: -1.125%.